Measured values from PMC9663433.
No constants are given. Whether binding was seen depends on the method and setting. Binding seen in cells or lysates may run through a third protein. Some results given as binding are weak or reduced against the parent protein; the word gives no strength. Values belong to the molecule of their own block, whether it stands above or below them.

Sequences of proteins named here, by UniProt entry; tags and fusion partners are left off. A change or cut given only in a name is not applied to a line headed by its entry. Residues count along the entry.
UniProt Q9NZQ7: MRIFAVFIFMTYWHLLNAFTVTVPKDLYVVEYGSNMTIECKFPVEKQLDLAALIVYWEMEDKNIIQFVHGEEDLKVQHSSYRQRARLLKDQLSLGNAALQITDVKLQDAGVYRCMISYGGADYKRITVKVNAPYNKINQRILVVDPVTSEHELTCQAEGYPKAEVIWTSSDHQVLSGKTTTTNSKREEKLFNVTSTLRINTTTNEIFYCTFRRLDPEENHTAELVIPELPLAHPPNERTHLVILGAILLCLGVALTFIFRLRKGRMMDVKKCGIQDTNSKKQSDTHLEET
endogenous PD-L1 (MDA-MB-231 cells) (human (endogenous in MDA-MB-231)): residues 19-290 of Q9NZQ7
UniProt Q9BVT8: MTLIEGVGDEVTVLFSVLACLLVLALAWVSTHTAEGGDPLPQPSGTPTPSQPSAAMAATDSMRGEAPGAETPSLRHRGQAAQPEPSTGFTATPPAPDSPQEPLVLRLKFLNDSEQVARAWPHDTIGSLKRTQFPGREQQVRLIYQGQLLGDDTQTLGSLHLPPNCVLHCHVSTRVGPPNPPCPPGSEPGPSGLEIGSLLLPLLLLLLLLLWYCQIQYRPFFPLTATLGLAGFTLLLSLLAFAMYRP

What was measured:
PD-L1-HA (human) [1] = target: PD-L1-HA (human) (UniProt Q9NZQ7); assay: co-IP; transfected HEK-293T cells, lysates in NETN buffer; FLAG-M2 or HA magnetic beads; immunoblot; in Fig. 3a, b cells treated with 5 μg/ml tunicamycin for 12 h or not, or 10 µM MG132 for 6 h
[2] = target: endogenous PD-L1 (MDA-MB-231 cells) (human (endogenous in MDA-MB-231)) (UniProt Q9NZQ7); assay: co-IP; MDA-MB-231 lysates in NETN buffer; primary antibody or control IgG, protein A/G magnetic beads, 4 °C; immunoblot; in some panels cells treated with 10 µM MG132 for 6 h, IFN-γ, c-Myc overexpression, TMUB1 overexpression (Fig. 3n) or 10 µM PTPR for 12 h (Fig. 6k)
[3] = target: PD-L1-Flag truncation: Extracellular Domain (ECD) (human) (UniProt Q9NZQ7); assay: co-IP; transfected HEK-293T cells, lysates in NETN buffer; FLAG-M2 or HA magnetic beads; immunoblot; in Fig. 3a, b cells treated with 5 μg/ml tunicamycin for 12 h or not, or 10 µM MG132 for 6 h
[4] = target: endogenous PD-L1 (MDA-MB-231 cells) (human (endogenous in MDA-MB-231)) (UniProt Q9NZQ7); assay: co-IP; ER fraction of MDA-MB-231 cells; PD-L1 and TMUB1/HUWE1 (Fig. 3f)
[5] = target: endogenous PD-L1 (MDA-MB-231 cells) (human (endogenous in MDA-MB-231)) (UniProt Q9NZQ7); assay: co-IP; endogenous HUWE1 and PD-L1 in MDA-MB-231 cells with TMUB1 overexpression or not; IgG as negative control (Fig. 3j)
PD-L1-HA (human) [6] = target: PD-L1-HA (human) (UniProt Q9NZQ7); assay: co-IP; TMUB1-Flag and PD-L1-HA in HEK-293T cells untreated or treated with 10 µM PTPR-FITC for 12 h (Fig. 6i); the synthetic peptide added to the cells as competitor; only the binder purified
[7] = target: endogenous PD-L1 (MDA-MB-231 cells) (human (endogenous in MDA-MB-231)) (UniProt Q9NZQ7); assay: co-IP; MDA-MB-231 lysates in NETN buffer; primary antibody or control IgG, protein A/G magnetic beads, 4 °C; immunoblot; in some panels cells treated with 10 µM MG132 for 6 h, IFN-γ, c-Myc overexpression, TMUB1 overexpression (Fig. 3n) or 10 µM PTPR for 12 h (Fig. 6k); remark: listed apart in the source

- binding (PD-L1-HA (human) [1]): binds
Molecule: HUWE1-Flag (from UniProt Q7Z6Z7 1-4374) (enzyme)

- binding [2]: binds
Molecule: HUWE1-HA (MDA-MB-231 cells) (from UniProt Q7Z6Z7 1-4374) (enzyme)

- binding [3]: binds
Molecule: HUWE1-HA (HEK-293T cells) (from UniProt Q7Z6Z7 1-4374) (enzyme)

- binding [4]: binds
- binding [5]: binds
- binding [2]: binds
Molecule: endogenous HUWE1 (MDA-MB-231 cells) (from UniProt Q7Z6Z7 1-4374) (enzyme)

- binding (PD-L1-HA (human) [6]): binds
B1: PTPR (Peptide of TMUB1 PD-L1 Regulatory domain) (peptide, UniProt Q9BVT8 88-102)
peptide: GFTATPPAPDSPQEP
modifications: FITC (position not given)

- binding [7]: binds
B2: STT3A (enzyme, UniProt P46977 1-705)
chain: MTKFGFLRLSYEKQDTLLKLLILSMAAVLSFSTRLFAVLRFESVIHEFDPYFNYRTTRFLAEEGFYKFHNWFDDRAWYPLGRIIGGTIYPGLMITSAAIYHVLHFFHITIDIRNVCVFLAPLFSSFTTIVTYHLTKELKDAGAGLLAAAMIAVVPGYISRSVAGSYDNEGIAIFCMLLTYYMWIKAVKTGSICWAAKCALAYFYMVSSWGGYVFLINLIPLHVLVLMLTGRFSHRIYVAYCTVYCLGTILSMQISFVGFQPVLSSEHMAAFGVFGLCQIHAFVDYLRSKLNPQQFEVLFRSVISLVGFVLLTVGALLMLTGKISPWTGRFYSLLDPSYAKNNIPIIASVSEHQPTTWSSYYFDLQLLVFMFPVGLYYCFSNLSDARIFIIMYGVTSMYFSAVMVRLMLVLAPVMCILSGIGVSQVLSTYMKNLDISRPDKKSKKQQDSTYPIKNEVASGMILVMAFFLITYTFHSTWVTSEAYSSPSIVLSARGGDGSRIIFDDFREAYYWLRHNTPEDAKVMSWWDYGYQITAMANRTILVDNNTWNNTHISRVGQAMASTEEKAYEIMRELDVSYVLVIFGGLTGYSSDDINKFLWMVRIGGSTDTGKHIKENDYYTPTGEFRVDREGSPVLLNCLMYKMCYYRFGQVYTEAKRPPGFDRVRNAEIGNKDFELDVLEEAYTTEHWLVRIYKVKDLDNRGLSRT
